From article PMC10844298
Results are given in words; binding and its absence hold for the method and conditions named. In cells and extracts the contact can be indirect. Some binding calls cover weakened binding; strength is not graded here.

Amino acid sequences for entries named in this document (tags omitted).
UniProt P56962: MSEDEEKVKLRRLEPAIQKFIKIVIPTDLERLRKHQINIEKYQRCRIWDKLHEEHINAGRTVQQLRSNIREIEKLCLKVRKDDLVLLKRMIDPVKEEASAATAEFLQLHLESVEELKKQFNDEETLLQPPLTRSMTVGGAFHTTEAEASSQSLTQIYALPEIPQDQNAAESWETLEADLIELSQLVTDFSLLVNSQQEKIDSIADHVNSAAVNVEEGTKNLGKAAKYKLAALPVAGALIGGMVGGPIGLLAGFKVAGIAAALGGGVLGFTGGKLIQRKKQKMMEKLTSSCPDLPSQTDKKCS
UniProt Q13177: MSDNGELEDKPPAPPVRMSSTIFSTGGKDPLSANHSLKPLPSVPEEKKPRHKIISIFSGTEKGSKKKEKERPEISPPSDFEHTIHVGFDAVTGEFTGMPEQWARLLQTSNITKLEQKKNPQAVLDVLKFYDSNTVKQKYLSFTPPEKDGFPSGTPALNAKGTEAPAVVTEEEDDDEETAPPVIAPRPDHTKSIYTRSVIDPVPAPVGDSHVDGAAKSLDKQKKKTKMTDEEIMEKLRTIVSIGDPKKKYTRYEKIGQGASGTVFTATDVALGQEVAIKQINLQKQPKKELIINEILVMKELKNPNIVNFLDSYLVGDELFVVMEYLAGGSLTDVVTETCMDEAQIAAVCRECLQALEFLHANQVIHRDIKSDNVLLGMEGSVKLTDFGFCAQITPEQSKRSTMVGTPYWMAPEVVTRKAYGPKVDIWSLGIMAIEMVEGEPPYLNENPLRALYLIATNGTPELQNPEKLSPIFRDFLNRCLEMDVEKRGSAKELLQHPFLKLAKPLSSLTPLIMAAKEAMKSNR
UniProt Q13153: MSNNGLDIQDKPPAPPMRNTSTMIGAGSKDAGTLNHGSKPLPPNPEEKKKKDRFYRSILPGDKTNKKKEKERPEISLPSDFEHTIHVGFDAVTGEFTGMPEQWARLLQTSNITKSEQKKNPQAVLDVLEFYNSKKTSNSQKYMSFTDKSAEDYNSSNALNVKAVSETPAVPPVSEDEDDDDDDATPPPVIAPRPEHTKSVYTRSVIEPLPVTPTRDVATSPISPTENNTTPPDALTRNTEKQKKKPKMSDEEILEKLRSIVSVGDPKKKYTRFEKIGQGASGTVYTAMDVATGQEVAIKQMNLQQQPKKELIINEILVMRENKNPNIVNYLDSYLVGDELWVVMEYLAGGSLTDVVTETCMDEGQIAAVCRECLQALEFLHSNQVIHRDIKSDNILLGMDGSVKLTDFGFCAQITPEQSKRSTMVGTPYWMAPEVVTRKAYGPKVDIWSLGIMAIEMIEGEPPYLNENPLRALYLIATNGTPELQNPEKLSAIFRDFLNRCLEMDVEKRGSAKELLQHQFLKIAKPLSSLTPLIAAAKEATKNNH

Target: GFP-STX17 (human) (UniProt P56962)
Test: co-IP; lysate of MDA-MB-231 cells expressing GFP or GFP-STX17 incubated with GFP-coated beads at 4 °C for 2 h; lysis buffer with NaCl, glycerine, Tris-HCl pH 7.4, 0.5% Triton X-100; washed 5 times with lysis buffer containing 1% NP40; western blotting

binding	Substance
binds	P21-activated kinase 2 (PAK2) (from UniProt Q13177 1-524)
no binding	PAK1 (from UniProt Q13153 1-545)
